Source: doi:10.1101/2020.07.30.228585
These are yes or no findings as the source states them, for the method shown. Binding calls can cover weak binding; strength is not graded here.

Target: S. pombe Y-complex (also called Nup107 complex) (S. pombe (endogenous in S. pombe cells))
Assay: cryo-EM structure

- binding: binds
B1: Ely5 (protein, UniProt O94384 1-298)
chain: MLKMEDDQFERFVGLFSMKDEDFPYNSQVTNEIQTFRKQQVDSQLFFDVLLSFIEGIEDPSSLYPPKSIDDLQSLFMIIENSNIDELKQQCFYYYLLKDWEKSETYSEQVSLPKNYQHLMDGYYYLDRLKFEEAINHLLLPDVLPNFPDKIIETLYSNEKYKFLIRFVSFVGPPLDTFRKEECYALSLVRYSFLASYHYMKKCTKPLVLWEEMIQLILESNDTQSCKLIVSLPLSQEECEVLFSLLRSKKEPLYLNTLLALLVESNNIQEALELSSNSTHLQKSAVNTYLHKLNSLSS
